Results reported in patent US20210380977, “MYOCARDIAL ENHANCER RNA AND METHODS OF USE” (THE TRUSTEES OF INDIANA UNIVERSITY, published 2021).
The exact form of at least one protein or probe is not confirmed. No signal at the amounts used counts as a negative. Where a protein sequence is shown, tags need not be part of it.

Target: T1, CTCF (UniProt P49711)
T1 sequence (looked up, limits assumed): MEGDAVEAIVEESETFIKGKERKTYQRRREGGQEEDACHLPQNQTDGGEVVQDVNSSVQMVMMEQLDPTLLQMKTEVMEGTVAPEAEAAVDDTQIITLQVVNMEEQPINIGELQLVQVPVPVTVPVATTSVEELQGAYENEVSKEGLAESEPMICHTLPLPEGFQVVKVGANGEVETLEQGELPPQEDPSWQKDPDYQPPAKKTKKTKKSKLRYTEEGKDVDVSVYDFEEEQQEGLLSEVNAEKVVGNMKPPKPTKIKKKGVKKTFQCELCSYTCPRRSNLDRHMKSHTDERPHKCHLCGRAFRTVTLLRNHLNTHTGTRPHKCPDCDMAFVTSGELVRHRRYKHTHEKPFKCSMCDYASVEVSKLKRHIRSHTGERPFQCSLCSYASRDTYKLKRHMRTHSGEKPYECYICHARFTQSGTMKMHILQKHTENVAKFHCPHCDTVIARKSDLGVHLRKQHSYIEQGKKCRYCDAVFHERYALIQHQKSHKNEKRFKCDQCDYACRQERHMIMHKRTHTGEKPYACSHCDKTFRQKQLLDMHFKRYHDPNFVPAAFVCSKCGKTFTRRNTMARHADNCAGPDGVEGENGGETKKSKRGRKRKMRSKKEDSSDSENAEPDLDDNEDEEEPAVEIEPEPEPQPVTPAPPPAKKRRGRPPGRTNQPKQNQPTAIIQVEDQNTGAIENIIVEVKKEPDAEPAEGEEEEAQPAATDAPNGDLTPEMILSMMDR
Experiment: EMSA
Conditions: purified recombinant protein; protein details: Abnova H00010664-P01; label: 5' biotin on the DNA strand; DNA:RNA hybrid; variant of eDNA CTCF site dsDNA probe

GGTCAGCCACACAACAGAGGGGGTGGCACAGCTCTTGGGA [Uhrt-eDNA hybrid CTCF site probe]
binding result: no binding
